The results in this text go back to paper PMC11118698.

Protein sequences, listed by entry. Tags and fused reporters are not part of them.
UniProt Q14145: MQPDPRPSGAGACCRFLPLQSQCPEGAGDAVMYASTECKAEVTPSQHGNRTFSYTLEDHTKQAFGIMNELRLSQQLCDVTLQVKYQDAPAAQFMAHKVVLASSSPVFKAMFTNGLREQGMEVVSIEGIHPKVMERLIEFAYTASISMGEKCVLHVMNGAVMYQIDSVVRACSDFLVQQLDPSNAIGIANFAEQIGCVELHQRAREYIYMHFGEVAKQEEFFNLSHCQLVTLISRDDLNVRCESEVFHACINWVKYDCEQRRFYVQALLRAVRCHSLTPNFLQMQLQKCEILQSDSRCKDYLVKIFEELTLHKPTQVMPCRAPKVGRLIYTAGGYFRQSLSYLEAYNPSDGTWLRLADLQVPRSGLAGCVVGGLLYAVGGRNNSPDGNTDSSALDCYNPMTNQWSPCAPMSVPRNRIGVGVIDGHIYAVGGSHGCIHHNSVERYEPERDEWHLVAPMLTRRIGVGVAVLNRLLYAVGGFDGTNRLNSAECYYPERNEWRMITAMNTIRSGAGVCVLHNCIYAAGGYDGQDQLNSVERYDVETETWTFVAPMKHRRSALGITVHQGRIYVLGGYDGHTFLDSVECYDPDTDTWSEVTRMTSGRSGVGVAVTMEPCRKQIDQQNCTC
UniProt Q13772: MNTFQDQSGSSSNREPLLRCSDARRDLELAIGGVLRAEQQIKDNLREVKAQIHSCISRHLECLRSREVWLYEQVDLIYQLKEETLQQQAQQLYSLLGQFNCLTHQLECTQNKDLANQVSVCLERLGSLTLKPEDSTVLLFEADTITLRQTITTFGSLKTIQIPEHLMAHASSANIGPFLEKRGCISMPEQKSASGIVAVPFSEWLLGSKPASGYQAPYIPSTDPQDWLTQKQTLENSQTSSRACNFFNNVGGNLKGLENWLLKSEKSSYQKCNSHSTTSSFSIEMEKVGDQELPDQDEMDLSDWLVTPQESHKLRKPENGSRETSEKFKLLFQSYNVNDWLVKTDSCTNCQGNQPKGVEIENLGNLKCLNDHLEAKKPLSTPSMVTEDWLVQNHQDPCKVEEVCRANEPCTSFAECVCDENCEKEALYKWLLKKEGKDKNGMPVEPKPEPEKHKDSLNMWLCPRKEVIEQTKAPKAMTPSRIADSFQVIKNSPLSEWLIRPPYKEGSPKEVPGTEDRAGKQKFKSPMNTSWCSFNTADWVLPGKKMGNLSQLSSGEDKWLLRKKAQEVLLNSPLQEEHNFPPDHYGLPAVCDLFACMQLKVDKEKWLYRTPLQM

Results are given in words; binding and its absence hold for the method and conditions named. In cells and extracts the contact can be indirect. Some results given as binding are weak or reduced against the parent protein; the word gives no strength.

For experiment [1], the target named is Myc-KEAP1 (Kelch-like ECH-associated protein 1) (UniProt Q14145). The experiment can be described thus: co-IP; HEK293 cells co-transfected with Myc-KEAP1 and HA-NCOA4 plasmids; IP with anti-HA or anti-Myc antibody (reciprocal).
For experiment [2], the target named is HA-NCOA4 (nuclear receptor co-activator 4) (UniProt Q13772). The description is as above.

Regarding “HA-NCOA4 (nuclear receptor co-activator 4) (from UniProt Q13772 1-614)”, in experiment [1], the binding entry was “binds”. Take “Myc-KEAP1 (Kelch-like ECH-associated protein 1) (from UniProt Q14145 1-624)”: the binding entry in experiment [2] is given as “binds”.
